Measured values as given in PMC9508196 (Scientific Reports, 2022).

Assays:
[1] = tested on: Gram-negative bacterial strains; conditions: ratio of MHC to GM of MICs, MHC > 250 taken as 500, < 0.98 as 0.49 µg/ml
[2] = tested on: Gram-positive bacterial strains; conditions: ratio of MHC to GM of MICs, MHC > 250 taken as 500, < 0.98 as 0.49 µg/ml

Row | Compound | Therapeutic index (TI) (Gr.- strains) [1] | Therapeutic index (TI) (Gr. + strains) [2]
1 | CC[C@H](C)[C@H](NC(=O)CN)C(=O)NCC(=O)N[C@@H](C)C(=O)N[C@H](C(=O)N[C@@H](CC(C)C)C(=O)N[C@@H](CCCCN)C(=O)N[C@H](C(=O)N[C@@H](CC(C)C)C(=O)N[C@H](C(=O)N[C@H](C(=O)NCC(=O)N[C@@H](CC(C)C)C(=O)N1CCC[C@H]1C(=O)N[C@@H](C)C(=O)N[C@@H](CC(C)C)C(=O)N[C@H](C(=O)N[C@@H](CO)C(=O)N[C@@H](Cc1c[nH]c2ccccc12)C(=O)N[C@H](C(=O)N[C@@H](CCCCN)C(=O)N[C@@H](CCCNC(=N)N)C(=O)N[C@@H](CCCCN)C(=O)N[C@@H](CCCNC(=N)N)C(=O)N[C@@H](CCC(N)=O)C(=O)N[C@@H](CCC(N)=O)C(N)=O)[C@@H](C)CC)[C@@H](C)CC)[C@@H](C)O)[C@@H](C)O)C(C)C)C(C)C [Melittin, reference compound] | 0.09 | 0.06
2 | RLFRRVKKVAGK-NH2 [AP12] | 1.92 | 1.45
3 | RLFRRVKKVAGKI-NH2 [AP13] | 2.00 | 1.78
4 | RLFRRVKKVAGKIA-NH2 [AP14] | 2.29 | 1.83
5 | RLFRRVKKVAGKIAK-NH2 [AP15] | 8.00 | 2.51
6 | RLFRRVKKVAGKIAKR-NH2 [AP16] | 9.60 | 5.02
7 | RLFRRVKKVAGKIAKRI-NH2 [AP17] | 21.33 | 14.22
8 | RLFRRVKKVAGKIAKRIW-NH2 [AP18] | 69.8 | 63.98
9 | RLFRRVKKVAGKIAKRIWK-NH2 [AP19] | 69.8 | 85.32
10 | RLFRRVKKVAGKIAKRIWKILRR-NH2 [A3P7] | 0.21 | 0.29

No end group written: not given here.
